Results are given in words; binding and its absence hold for the method and conditions named. Some entries that bind do so weakly or less than the wild type.

The chains behind the UniProt entries cited, without tags or fusion partners. Residues count along the entry.
UniProt P05067, residues 672-713: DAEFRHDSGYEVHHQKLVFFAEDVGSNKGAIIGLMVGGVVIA

Data on three molecules can be found in patent US20110300141A1.

The assay has as its target Aβ (UniProt P05067). Description: sequestration of Aβ from solutions with serum.

With KDKTPKSKSKKRNSTQLKSRVKNITHARRILQQSNRNACN [Peptide P5], the binding entry was “binds”. The same measure for KTFKTRKASAQASLASKDKTPKSKSKKRNSTQLKSRVKNI [Peptide P4-5]: “binds”; for FSSMPDPVDPTTVTKTFKTRKASAQASLASKDKTPKSKSK [Peptide P4]: “binds”.
